PMC2660419
Results are given in words; binding and its absence hold for the method and conditions named. Binding seen in cells or lysates may run through a third protein. Some entries that bind do so weakly or less than the wild type. Tags and fused reporters may be left off the sequences shown.

Protein sequences, listed by entry. Tags and fused reporters are not part of them.
UniProt Q01105: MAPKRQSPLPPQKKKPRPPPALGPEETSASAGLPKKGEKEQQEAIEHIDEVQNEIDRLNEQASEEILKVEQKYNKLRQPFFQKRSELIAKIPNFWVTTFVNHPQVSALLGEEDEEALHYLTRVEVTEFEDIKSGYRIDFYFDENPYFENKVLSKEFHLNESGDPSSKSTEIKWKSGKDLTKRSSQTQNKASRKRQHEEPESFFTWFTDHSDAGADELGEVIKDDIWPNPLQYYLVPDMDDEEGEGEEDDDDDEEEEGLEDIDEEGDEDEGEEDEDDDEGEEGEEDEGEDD
UniProt Q92769: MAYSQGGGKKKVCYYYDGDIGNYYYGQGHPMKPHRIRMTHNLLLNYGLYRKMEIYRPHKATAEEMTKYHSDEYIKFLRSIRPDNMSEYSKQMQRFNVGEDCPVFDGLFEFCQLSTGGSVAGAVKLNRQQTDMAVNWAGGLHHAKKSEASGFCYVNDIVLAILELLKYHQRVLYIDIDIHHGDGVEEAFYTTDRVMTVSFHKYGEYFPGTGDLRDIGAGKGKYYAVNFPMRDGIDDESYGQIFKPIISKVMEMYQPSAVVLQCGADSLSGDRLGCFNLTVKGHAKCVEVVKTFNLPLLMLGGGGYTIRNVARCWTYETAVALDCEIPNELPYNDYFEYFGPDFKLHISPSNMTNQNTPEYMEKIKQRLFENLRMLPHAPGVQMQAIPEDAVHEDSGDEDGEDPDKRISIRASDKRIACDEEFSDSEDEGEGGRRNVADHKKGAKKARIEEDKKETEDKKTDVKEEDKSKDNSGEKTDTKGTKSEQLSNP
UniProt Q13547: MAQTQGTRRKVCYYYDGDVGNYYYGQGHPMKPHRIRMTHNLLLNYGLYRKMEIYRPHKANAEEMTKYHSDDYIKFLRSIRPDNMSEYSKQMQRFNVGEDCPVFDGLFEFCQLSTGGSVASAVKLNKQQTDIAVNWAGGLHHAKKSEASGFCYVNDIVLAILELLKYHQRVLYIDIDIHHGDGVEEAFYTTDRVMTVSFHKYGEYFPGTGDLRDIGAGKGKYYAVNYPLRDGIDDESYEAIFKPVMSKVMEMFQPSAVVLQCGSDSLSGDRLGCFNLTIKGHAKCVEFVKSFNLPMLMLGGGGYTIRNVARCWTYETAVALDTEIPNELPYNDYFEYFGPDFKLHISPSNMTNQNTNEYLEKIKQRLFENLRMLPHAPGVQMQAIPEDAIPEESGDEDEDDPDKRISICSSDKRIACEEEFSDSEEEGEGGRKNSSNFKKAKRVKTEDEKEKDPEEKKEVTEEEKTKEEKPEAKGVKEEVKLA

Columns and labels:
[1] = target: T1, FLAG-tagged rat FE65 (rat) (UniProt P46933); test: co-IP; data not shown; V5-SET and FLAG-FE65 co-transfected into H4 cells; IP with anti-FLAG agarose (anti-myc agarose as negative control), blot with anti-V5
T1 sequence: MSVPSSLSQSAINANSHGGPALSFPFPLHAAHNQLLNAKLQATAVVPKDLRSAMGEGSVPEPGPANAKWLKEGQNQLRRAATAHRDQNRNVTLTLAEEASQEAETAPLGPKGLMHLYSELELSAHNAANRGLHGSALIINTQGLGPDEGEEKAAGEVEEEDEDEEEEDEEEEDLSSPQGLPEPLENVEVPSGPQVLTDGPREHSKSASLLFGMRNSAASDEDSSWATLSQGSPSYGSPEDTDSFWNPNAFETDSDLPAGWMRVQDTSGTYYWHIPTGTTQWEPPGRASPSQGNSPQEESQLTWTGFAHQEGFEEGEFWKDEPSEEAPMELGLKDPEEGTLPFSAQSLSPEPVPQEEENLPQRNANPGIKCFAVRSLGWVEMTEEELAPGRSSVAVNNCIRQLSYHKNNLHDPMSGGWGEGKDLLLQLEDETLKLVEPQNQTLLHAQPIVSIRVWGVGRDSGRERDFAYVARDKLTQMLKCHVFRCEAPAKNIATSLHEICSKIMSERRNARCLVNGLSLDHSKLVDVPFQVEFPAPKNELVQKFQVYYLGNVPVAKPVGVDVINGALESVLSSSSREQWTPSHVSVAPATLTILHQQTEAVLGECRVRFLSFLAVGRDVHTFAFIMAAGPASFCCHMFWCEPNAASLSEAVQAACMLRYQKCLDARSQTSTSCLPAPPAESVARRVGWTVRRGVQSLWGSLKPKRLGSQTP

[2] = target: T2, myc-tagged full-length human Teashirt3 (human) (UniProt Q63HK5); test: co-IP; H4 cells transfected with myc-tagged Teashirt3 constructs; IP with 9E10 anti-myc and protein G agarose (PBS, 0.5% Triton X-100); blots with anti-HDAC1, HDAC2, HDAC3 or HDAC4 antibodies for endogenous HDACs
T2 sequence: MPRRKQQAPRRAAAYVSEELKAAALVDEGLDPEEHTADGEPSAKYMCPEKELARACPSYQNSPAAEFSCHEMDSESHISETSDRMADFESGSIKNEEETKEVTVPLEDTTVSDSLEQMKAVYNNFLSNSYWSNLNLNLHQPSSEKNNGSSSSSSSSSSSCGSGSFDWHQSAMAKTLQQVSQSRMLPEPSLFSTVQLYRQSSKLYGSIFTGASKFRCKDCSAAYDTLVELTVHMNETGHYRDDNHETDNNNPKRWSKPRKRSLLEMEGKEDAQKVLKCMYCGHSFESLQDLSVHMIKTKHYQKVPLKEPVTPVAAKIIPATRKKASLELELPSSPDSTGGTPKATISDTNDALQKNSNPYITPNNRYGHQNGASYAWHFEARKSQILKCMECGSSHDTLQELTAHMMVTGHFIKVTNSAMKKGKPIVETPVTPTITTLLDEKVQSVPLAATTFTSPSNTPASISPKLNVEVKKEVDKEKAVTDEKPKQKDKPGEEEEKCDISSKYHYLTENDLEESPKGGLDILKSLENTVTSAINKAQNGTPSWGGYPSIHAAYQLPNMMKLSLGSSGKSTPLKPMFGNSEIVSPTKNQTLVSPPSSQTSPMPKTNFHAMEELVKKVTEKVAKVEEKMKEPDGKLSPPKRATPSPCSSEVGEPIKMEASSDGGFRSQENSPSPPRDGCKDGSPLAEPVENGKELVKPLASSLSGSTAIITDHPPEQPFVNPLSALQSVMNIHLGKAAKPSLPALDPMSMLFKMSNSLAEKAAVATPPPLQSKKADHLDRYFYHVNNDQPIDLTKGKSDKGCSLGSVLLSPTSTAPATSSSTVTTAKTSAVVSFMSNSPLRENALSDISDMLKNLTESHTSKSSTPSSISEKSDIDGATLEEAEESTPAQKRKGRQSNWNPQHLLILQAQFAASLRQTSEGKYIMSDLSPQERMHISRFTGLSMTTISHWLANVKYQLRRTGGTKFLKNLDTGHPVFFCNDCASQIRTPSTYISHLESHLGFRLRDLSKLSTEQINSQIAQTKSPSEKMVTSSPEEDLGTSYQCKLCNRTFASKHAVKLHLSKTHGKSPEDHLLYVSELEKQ

Row | binding [1] | binding [2] | Substance
1 | binds | – | V5-tagged SET (from UniProt Q01105 1-290)
2 | – | binds | endogenous HDAC2 of H4 cells (from UniProt Q92769 1-488) (enzyme)
3 | – | binds | endogenous HDAC1 of H4 cells (from UniProt Q13547 1-482) (enzyme)
